In patent publication US20130059324A1, “SYSTEMS AND METHODS FOR MECHANICALLY STRAINED CELL CULTURE” (THE UNIVERSITY OF KANSAS, priority 2010, published 2013):

Tested on: NCI-H358 cells
Assay: Drug exposure with or without simulated forces, 6-well Bioflex plates, live cell count and exponential growth model
Assay type: cell-based, human
Design: key: ↑: Up arrow indicates the statistically significant increase; ↓: down arrow indicates the decrease; horizontal arrows indicate no change in growth rates
Conditions: for Change in Growth Rate: with versus without forces, drug at IC90
Source text: Treatments 1, 2 and 3 served as unstretched controls for Treatments 4, 5 and 6, respectively. For each cell line and drug, all treatments were independently repeated at least 3 times on different days, with 3 replicates per Treatments 1 and 4 (n=9) and 5 replicates per all other treatments (n=15).
The NCI-H358 (ATCC® CRL-5807) and A549 (ATCC® CCL-185) cell lines were obtained from American Type Culture Collection (ATCC, Manassas, Va.) and cultured in RPMI-1640 (NCI-H358) and HAM's F12K (A549) media containing 10% Fetal Bovine Serum (Sigma Aldrich, St. Louis, Mo.) and 1% Penicillin Streptomycin (Sigma Aldrich). Cells were passaged in 75 cm2 culture flasks at 37° C. in 5% CO2, and trypsinized using TryplE™ Express (Gibco) containing phenol red.
Cells were plated in 6-well Bioflex® plates (Flexcell® International Corporation, Hillsborough, N.C.). Each well of the plate has a flexible elastic membrane coated with a thin layer of type I collagen. Type I collagen was chosen since it more accurately represents the physiology of lung tumor cells in vivo. The Flexcell is not configured for drug studies as described herein, and had to be modified as described herein. […] Therefore, to have the same number of cells in culture at the time of drug exposure, initial seeding densities for treatments not involving simulated forces (Treatments 1-3) and those involving forces (Treatments 4-6) were adjusted for each cell line. In Treatments 1, 2 and 3, NCI-H358 and A549 cells were plated at a density of 100,000 and 20,000 cells/well in 2 ml of corresponding media, respectively. For treatments involving simulated forces (Treatments 4-6), NCI-H358 and A549 cells were plated at a density of 170,000 and 35,000 cells/well, respectively.
After allowing the cells to adhere to the membrane for 24 hours, the plates assigned for simulated forces were stretched using the FX-4000 Tension plus unit (Flexcell® International Corporation, Hillsborough, N.C.). The Flexcell unit was configured to deliver an alternating positive and negative pressure beneath the cell culture surfaces. Negative pressure pulls the culture surface down over a stationary Delrin post on the baseplate, delivering a uniform biaxial strain to the cells, and subsequent application of positive pressure releases this distension (FIGS. 9A and 9B.) In this manner, the alternating positive and negative pressure simulates forces experienced during respiration. Culture plates experiencing forces were fitted with rubber gaskets and placed on circular loading stations in the baseplate. […] Cells were preconditioned with mechanical forces for 48 hours, in an incubator at 37° C., 5% CO2 and 95% relative humidity.
After 72 hours of initial seeding, one of the five drugs was added to Treatments 3 and 6 of each cell line. […] The IC90, concentration of the drug that inhibits the growth of 90% of the cells in a static monolayer culture, was used to assure a significant inhibition in the absence of simulated forces. To insure comparability, an aliquot of 1 ml of media without the drug was added to each well in Treatments 2 and 5. After adding the drug or 1 ml of media, the plates from Treatments 5 and 6 were placed back on the baseplate and subjected to the same force profile as before for the remaining 72 hours. […]
Cells were trypsinized and counted at the end of day 3 in Treatments 1 and 4, and at the end of day 6 in the other treatments, using a Beckman Coulter Vi-Cell Analyzer (Beckman Coulter, Fullerton, Calif.). […]

Row | Structure (SMILES) | Change in Growth Rate | Change in effectiveness due to forces (Ef versus E)
1 | N.N.[Cl][Pt][Cl] [Cisplatin] | ↓ | 
2 | COc1cccc2c1C(=O)c1c(O)c3c(c(O)c1C2=O)C[C@@](O)(C(=O)CO)C[C@@H]3O[C@H]1C[C@H](N)[C@H](O)[C@H](C)O1 [Doxorubicin] | ↓ | 
3 | CC(=O)O[C@H]1C(=O)[C@@]2(C)[C@H]([C@H](OC(=O)c3ccccc3)[C@]3(O)C[C@H](OC(=O)[C@H](O)[C@@H](NC(=O)c4ccccc4)c4ccccc4)C(C)=C1C3(C)C)[C@]1(OC(C)=O)CO[C@@H]1C[C@@H]2O [Paclitaxel] | ↓ | 
4 | COc1cc2c(Nc3ccc(Br)cc3F)ncnc2cc1OCC1CCN(C)CC1 [Zactima] | ↓ | ↑
